These are yes or no findings as the source states them, for the method shown. Some results given as binding are weak or reduced against the parent protein; the word gives no strength.

Test [1] deals with Chimera A, intracellular part (JM of NFR1, kinase domain of CERK6) (Lotus japonicus). Nature of the test: native PAGE of purified intracellular part; self-association inferred from ladder pattern (same pattern as NFR1).
Test [2] concerns the target Chimera C, intracellular part (JM zones 2 and 3 of NFR1, JM zone 4 and kinase domain of CERK6) (Lotus japonicus). The description is as above.
Test [3] addresses Chimera B, intracellular part (JM of CERK6, kinase domain of NFR1) (Lotus japonicus). In words: native PAGE of purified intracellular part; self-association inferred from ladder pattern (same pattern as CERK6).
Test [4] concerns the target Lotus japonicus NFR1 intracellular domain (residues 263-623) (Lotus japonicus). Nature of the test: native PAGE of purified intracellular domain; self-association inferred from ladder pattern.
In test [5] the target is Lotus japonicus NFR1 (residues 263-623) D462N (Lotus japonicus). Nature of the test: native PAGE of purified intracellular domain; self-association inferred from ladder pattern (lane named only in the legend of FIG. 15F).
Test [6] addresses Chimera D, intracellular part (JM zones 2 and 3 of CERK6, JM zone 4 of NFR1, kinase domain of CERK6) (Lotus japonicus). In words: native PAGE of purified intracellular part; self-association inferred from ladder pattern (to some extent the same pattern as CERK6).

B1: Chimera A, intracellular part (JM of NFR1, kinase domain of CERK6) (receptor)
chain: QKKEEEKAKLPTDISMALSTQDGNASSSAEYETSGSSGPGTASATGLTSIMVAKSMEFSYQELAKATNNFSLANKIGQGGFGSVYYAELRGERAAIKKMDMQASKEFLAELKVLTRVHHLNLVRLIGYSIEGSLFLVYEFIENGNLSQHLRGSGRDPLPWATRVQIALDSARGLEYIHEHTVPVYIHRDIKSANILIDKNYRGKVADFGLTKLTEVGSSSLPTGRLVGTFGYMPPEYAQYGDVSPKVDVYAFGVVLYELISAKDAIVKTSESITDSKGLVALFEGVLSQPDPTEDLRKLVDQRLGDNYPVDSVRKMAQLAKACTQDNPQLRPSMRSIVVALMTLSSTTDDWDVGSFYENQNLVNLMSGR
On to B1, for which the binding entry in test [1] was “binds”.

B2: Chimera C, intracellular part (JM zones 2 and 3 of NFR1, JM zone 4 and kinase domain of CERK6) (receptor)
chain: QKKEEEKAKLPTDISMALSTQDGNASSSAEYETSGSSGPGTASATGLTSITVDKSVEFSYDELATATDNFSLANKIGQGGFGSVYYAELRGERAAIKKMDMQASKEFLAELKVLTRVHHLNLVRLIGYSIEGSLFLVYEFIENGNLSQHLRGSGRDPLPWATRVQIALDSARGLEYIHEHTVPVYIHRDIKSANILIDKNYRGKVADFGLTKLTEVGSSSLPTGRLVGTFGYMPPEYAQYGDVSPKVDVYAFGVVLYELISAKDAIVKTSESITDSKGLVALFEGVLSQPDPTEDLRKLVDQRLGDNYPVDSVRKMAQLAKACTQDNPQLRPSMRSIVVALMTLSSTTDDWDVGSFYENQNLVNLMSGR
For B2, in test [2], the binding result is given as “binds”.

B3: Chimera B, intracellular part (JM of CERK6, kinase domain of NFR1) (receptor)
chain: FRKKRIQKEELLSQETRAIFPQDGKDENPRSTVNETPGPGGPAAMAGITVDKSVEFSYDELATATDNFSLDNKIGQGGFGAVYYAELRGKKTAIKKMDVQASTEFLCELKVLTHVHHLNLVRLIGYCVEGSLFLVYEHIDNGNLGQYLHGSGKEPLPWSSRVQIALDAARGLEYIHEHTVPVYIHRDVKSANILIDKNLRGKVADFGLTKLIEVGNSTLQTRLVGTFGYMPPEYAQYGDISPKIDVYAFGVVLFELISAKNAVLKTGELVAESKGLVALFEEALNKSDPCDALRKLVDPRLGENYPIDSVLKIAQLGRACTRDNPLLRPSMRSLVVALMTLSSLTEDCDDESSYESQTLINLLSVR
For B3, the binding entry in test [3] is reported as “binds”.

B4: Lotus japonicus NFR1 intracellular domain (residues 263-623) (receptor)
chain: AKLPTDISMALSTQDGNASSSAEYETSGSSGPGTASATGLTSIMVAKSMEFSYQELAKATNNFSLDNKIGQGGFGAVYYAELRGKKTAIKKMDVQASTEFLCELKVLTHVHHLNLVRLIGYCVEGSLFLVYEHIDNGNLGQYLHGSGKEPLPWSSRVQIALDAARGLEYIHEHTVPVYIHRDVKSANILIDKNLRGKVADFGLTKLIEVGNSTLQTRLVGTFGYMPPEYAQYGDISPKIDVYAFGVVLFELISAKNAVLKTGELVAESKGLVALFEEALNKSDPCDALRKLVDPRLGENYPIDSVLKIAQLGRACTRDNPLLRPSMRSLVVALMTLSSLTEDCDDESSYESQTLINLLSVR
Regarding B4, the binding entry in test [4] is “binds”.

B5: Lotus japonicus NFR1 (residues 263-623) D462N (receptor)
chain: AKLPTDISMALSTQDGNASSSAEYETSGSSGPGTASATGLTSIMVAKSMEFSYQELAKATNNFSLDNKIGQGGFGAVYYAELRGKKTAIKKMDVQASTEFLCELKVLTHVHHLNLVRLIGYCVEGSLFLVYEHIDNGNLGQYLHGSGKEPLPWSSRVQIALDAARGLEYIHEHTVPVYIHRDVKSANILIDKNLRGKVANFGLTKLIEVGNSTLQTRLVGTFGYMPPEYAQYGDISPKIDVYAFGVVLFELISAKNAVLKTGELVAESKGLVALFEEALNKSDPCDALRKLVDPRLGENYPIDSVLKIAQLGRACTRDNPLLRPSMRSLVVALMTLSSLTEDCDDESSYESQTLINLLSVR
B5: the binding entry in test [5] is on record as “binds”.

B6: Chimera D, intracellular part (JM zones 2 and 3 of CERK6, JM zone 4 of NFR1, kinase domain of CERK6) (receptor)
chain: FRKKRIQKEELLSQETRAIFPQDGKDENPRSTVNETPGPGGPAAMAGIMVAKSMEFSYQELAKATNNFSLANKIGQGGFGSVYYAELRGERAAIKKMDMQASKEFLAELKVLTRVHHLNLVRLIGYSIEGSLFLVYEFIENGNLSQHLRGSGRDPLPWATRVQIALDSARGLEYIHEHTVPVYIHRDIKSANILIDKNYRGKVADFGLTKLTEVGSSSLPTGRLVGTFGYMPPEYAQYGDVSPKVDVYAFGVVLYELISAKDAIVKTSESITDSKGLVALFEGVLSQPDPTEDLRKLVDQRLGDNYPVDSVRKMAQLAKACTQDNPQLRPSMRSIVVALMTLSSTTDDWDVGSFYENQNLVNLMSGR
For B6, the binding result in test [6] was “binds”.

For the origin of these results see patent publication US20240344077A1.
